Tested on: microorganisms
Experiment: OECD 301F manometric respirometry biodegradability test
Settings: 57 to 100 mg/L

SMILES: O=C([O-])c1ccccc1.[Na+] [Sodium Benzoate]
- Percent Biodegradation Mean (Day 1): 22.51%
- Percent Biodegradation Rep 1 (Day 1): 22.43%
- Percent Biodegradation Rep 2 (Day 1): 21.14%
- Percent Biodegradation Rep 3 (Day 1): 23.95%
- Percent Biodegradation Mean (Day 2): 57.98%
- Percent Biodegradation Rep 1 (Day 2): 58.41%
- Percent Biodegradation Rep 2 (Day 2): 57.65%
- Percent Biodegradation Rep 3 (Day 2): 57.88%
- Percent Biodegradation Mean (Day 3): 60.95%
- Percent Biodegradation Rep 1 (Day 3): 61.48%
- Percent Biodegradation Rep 2 (Day 3): 60.26%
- Percent Biodegradation Rep 3 (Day 3): 61.12%
- Percent Biodegradation Mean (Day 4): 70.56%
- Percent Biodegradation Rep 1 (Day 4): 71.33%
- Percent Biodegradation Rep 2 (Day 4): 69.35%
- Percent Biodegradation Rep 3 (Day 4): 71.00%
- Percent Biodegradation Mean (Day 5): 76.88%
- Percent Biodegradation Rep 1 (Day 5): 79.98%
- Percent Biodegradation Rep 2 (Day 5): 75.69%
- Percent Biodegradation Rep 3 (Day 5): 74.96%
- Percent Biodegradation Mean (Day 6): 80.89%
- Percent Biodegradation Rep 1 (Day 6): 82.92%
- Percent Biodegradation Rep 2 (Day 6): 81.01%
- Percent Biodegradation Rep 3 (Day 6): 78.75%
- Percent Biodegradation Mean (Day 7): 84.60%
- Percent Biodegradation Rep 1 (Day 7): 85.65%
- Percent Biodegradation Rep 2 (Day 7): 84.56%
- Percent Biodegradation Rep 3 (Day 7): 83.60%
- Percent Biodegradation Mean (Day 8): 87.11%
- Percent Biodegradation Rep 1 (Day 8): 88.21%
- Percent Biodegradation Rep 2 (Day 8): 86.83%
- Percent Biodegradation Rep 3 (Day 8): 86.30%
- Percent Biodegradation Mean (Day 9): 89.08%
- Percent Biodegradation Rep 1 (Day 9): 90.06%
- Percent Biodegradation Rep 2 (Day 9): 88.89%
- Percent Biodegradation Rep 3 (Day 9): 88.29%
- Percent Biodegradation Mean (Day 10): 90.28%
- Percent Biodegradation Rep 1 (Day 10): 90.68%
- Percent Biodegradation Rep 2 (Day 10): 90.11%
- Percent Biodegradation Rep 3 (Day 10): 90.06%
- Percent Biodegradation Mean (Day 11): 91.03%
- Percent Biodegradation Rep 1 (Day 11): 91.37%
- Percent Biodegradation Rep 2 (Day 11): 90.72%
- Percent Biodegradation Rep 3 (Day 11): 90.99%
- Percent Biodegradation Mean (Day 12): 91.58%
- Percent Biodegradation Rep 1 (Day 12): 91.92%
- Percent Biodegradation Rep 2 (Day 12): 91.23%
- Percent Biodegradation Rep 3 (Day 12): 91.59%
- Percent Biodegradation Mean (Day 13): 92.04%
- Percent Biodegradation Rep 1 (Day 13): 92.38%
- Percent Biodegradation Rep 2 (Day 13): 91.66%
- Percent Biodegradation Rep 3 (Day 13): 92.07%
- Percent Biodegradation Mean (Day 14): 92.51%
- Percent Biodegradation Rep 1 (Day 14): 92.85%
- Percent Biodegradation Rep 2 (Day 14): 92.11%
- Percent Biodegradation Rep 3 (Day 14): 92.56%
- Percent Biodegradation Mean (Day 15): 92.92%
- Percent Biodegradation Rep 1 (Day 15): 93.24%
- Percent Biodegradation Rep 2 (Day 15): 92.48%
- Percent Biodegradation Rep 3 (Day 15): 93.03%
- Percent Biodegradation Mean (Day 16): 93.16%
- Percent Biodegradation Rep 1 (Day 16): 93.52%
- Percent Biodegradation Rep 2 (Day 16): 92.69%
- Percent Biodegradation Rep 3 (Day 16): 93.28%
- Percent Biodegradation Mean (Day 17): 93.41%
- Percent Biodegradation Rep 1 (Day 17): 93.70%
- Percent Biodegradation Rep 2 (Day 17): 92.93%
- Percent Biodegradation Rep 3 (Day 17): 93.60%
- Percent Biodegradation Mean (Day 18): 93.81%
- Percent Biodegradation Rep 1 (Day 18): 94.11%
- Percent Biodegradation Rep 2 (Day 18): 93.32%
- Percent Biodegradation Rep 3 (Day 18): 94.01%
- Percent Biodegradation Mean (Day 19): 94.12%
- Percent Biodegradation Rep 1 (Day 19): 94.45%
- Percent Biodegradation Rep 2 (Day 19): 93.59%
- Percent Biodegradation Rep 3 (Day 19): 94.33%
- Percent Biodegradation Mean (Day 20): 94.33%
- Percent Biodegradation Rep 1 (Day 20): 94.67%
- Percent Biodegradation Rep 2 (Day 20): 93.79%
- Percent Biodegradation Rep 3 (Day 20): 94.53%
- Percent Biodegradation Mean (Day 21): 94.57%
- Percent Biodegradation Rep 1 (Day 21): 94.86%
- Percent Biodegradation Rep 2 (Day 21): 93.98%
- Percent Biodegradation Rep 3 (Day 21): 94.86%
- Percent Biodegradation Mean (Day 22): 94.72%
- Percent Biodegradation Rep 1 (Day 22): 95.13%
- Percent Biodegradation Rep 2 (Day 22): 94.10%
- Percent Biodegradation Rep 3 (Day 22): 94.94%
- Percent Biodegradation Mean (Day 23): 94.91%
- Percent Biodegradation Rep 1 (Day 23): 95.28%
- Percent Biodegradation Rep 2 (Day 23): 94.30%
- Percent Biodegradation Rep 3 (Day 23): 95.16%
- Percent Biodegradation Mean (Day 24): 94.98%
- Percent Biodegradation Rep 1 (Day 24): 95.44%
- Percent Biodegradation Rep 2 (Day 24): 94.30%
- Percent Biodegradation Rep 3 (Day 24): 95.21%
- Percent Biodegradation Mean (Day 25): 95.09%
- Percent Biodegradation Rep 1 (Day 25): 95.57%
- Percent Biodegradation Rep 2 (Day 25): 94.36%
- Percent Biodegradation Rep 3 (Day 25): 95.33%
- Percent Biodegradation Mean (Day 26): 95.25%
- Percent Biodegradation Rep 1 (Day 26): 95.76%
- Percent Biodegradation Rep 2 (Day 26): 94.50%
- Percent Biodegradation Rep 3 (Day 26): 95.50%
- Percent Biodegradation Mean (Day 27): 95.35%
- Percent Biodegradation Rep 1 (Day 27): 95.89%
- Percent Biodegradation Rep 2 (Day 27): 94.58%
- Percent Biodegradation Rep 3 (Day 27): 95.58%
- Percent Biodegradation Mean (Day 28): 95.36%
- Percent Biodegradation Rep 1 (Day 28): 95.91%
- Percent Biodegradation Rep 2 (Day 28): 94.59%
- Percent Biodegradation Rep 3 (Day 28): 95.57%
